Drawing on article PMC12948199, this text covers binding for two molecules.

The chains behind the UniProt entries cited, without tags or fusion partners.
UniProt P10415: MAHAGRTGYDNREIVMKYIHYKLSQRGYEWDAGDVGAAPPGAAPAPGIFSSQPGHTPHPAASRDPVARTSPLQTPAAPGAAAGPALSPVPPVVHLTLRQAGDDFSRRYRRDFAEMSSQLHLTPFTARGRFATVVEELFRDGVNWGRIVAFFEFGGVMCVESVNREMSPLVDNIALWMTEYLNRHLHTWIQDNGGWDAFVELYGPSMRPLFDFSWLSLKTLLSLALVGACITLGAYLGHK

These are yes or no findings as the source states them, for the method shown. In cells and extracts the contact can be indirect. Some results given as binding are weak or reduced against the parent protein; the word gives no strength. For some assays here: Sequences can lack the tags named with a protein.

The target of test [1] is T1, Flag-tagged A20 (wild type) (UniProt P21580).
T1 sequence: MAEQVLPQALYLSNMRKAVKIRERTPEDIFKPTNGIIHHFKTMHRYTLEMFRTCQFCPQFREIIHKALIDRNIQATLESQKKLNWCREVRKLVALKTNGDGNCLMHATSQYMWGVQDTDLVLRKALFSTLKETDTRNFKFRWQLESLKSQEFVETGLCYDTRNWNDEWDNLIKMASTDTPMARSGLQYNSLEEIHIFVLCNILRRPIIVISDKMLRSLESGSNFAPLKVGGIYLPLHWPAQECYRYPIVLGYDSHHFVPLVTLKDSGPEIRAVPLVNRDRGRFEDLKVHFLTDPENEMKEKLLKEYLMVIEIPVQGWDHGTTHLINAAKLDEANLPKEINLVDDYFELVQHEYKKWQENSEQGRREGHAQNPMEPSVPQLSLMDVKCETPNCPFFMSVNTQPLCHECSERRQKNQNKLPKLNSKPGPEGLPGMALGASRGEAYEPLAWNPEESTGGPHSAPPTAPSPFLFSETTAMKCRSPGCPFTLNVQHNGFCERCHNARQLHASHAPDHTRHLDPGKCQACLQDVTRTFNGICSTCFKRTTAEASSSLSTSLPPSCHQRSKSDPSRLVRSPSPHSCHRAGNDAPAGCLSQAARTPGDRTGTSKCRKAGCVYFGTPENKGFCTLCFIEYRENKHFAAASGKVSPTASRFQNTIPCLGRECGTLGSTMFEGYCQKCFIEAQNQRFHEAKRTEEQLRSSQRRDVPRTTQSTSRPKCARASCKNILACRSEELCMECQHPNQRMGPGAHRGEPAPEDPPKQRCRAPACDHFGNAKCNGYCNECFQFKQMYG
Nature of the test: co-IP; HEK293T cells with Flag-vector or Flag-A20; immunoprecipitation followed by western blot for BCL-2; IP lysis buffer (0.025 M Tris pH 7.4, 0.15 M NaCl, 0.001 M EDTA, 1% NP40, 5% glycerol), overnight at 4 °C, protein A/G magnetic beads. In general terms: Immunoblotting shows a protein as a band on a membrane.

Test [2] concerns the target T2, A20 (tumor necrosis factor alpha-induced protein 3), endogenous (human (endogenous in HCT116 and THC8307)) (UniProt P21580).
T2 sequence: T1 sequence
Nature of the test: co-IP; endogenous proteins in HCT116 and THC8307 cells; immunoprecipitation followed by western blot; IP lysis buffer (0.025 M Tris pH 7.4, 0.15 M NaCl, 0.001 M EDTA, 1% NP40, 5% glycerol), overnight at 4 °C, protein A/G magnetic beads.

Regarding BCL-2 (from UniProt P10415 1-239), the binding entry in test [1] is reported as “no binding”.

B1: IKK-β, endogenous (protein, UniProt O14920 1-756)
chain: MSWSPSLTTQTCGAWEMKERLGTGGFGNVIRWHNQETGEQIAIKQCRQELSPRNRERWCLEIQIMRRLTHPNVVAARDVPEGMQNLAPNDLPLLAMEYCQGGDLRKYLNQFENCCGLREGAILTLLSDIASALRYLHENRIIHRDLKPENIVLQQGEQRLIHKIIDLGYAKELDQGSLCTSFVGTLQYLAPELLEQQKYTVTVDYWSFGTLAFECITGFRPFLPNWQPVQWHSKVRQKSEVDIVVSEDLNGTVKFSSSLPYPNNLNSVLAERLEKWLQLMLMWHPRQRGTDPTYGPNGCFKALDDILNLKLVHILNMVTGTIHTYPVTEDESLQSLKARIQQDTGIPEEDQELLQEAGLALIPDKPATQCISDGKLNEGHTLDMDLVFLFDNSKITYETQISPRPQPESVSCILQEPKRNLAFFQLRKVWGQVWHSIQTLKEDCNRLQQGQRAAMMNLLRNNSCLSKMKNSMASMSQQLKAKLDFFKTSIQIDLEKYSEQTEFGITSDKLLLAWREMEQAVELCGRENEVKLLVERMMALQTDIVDLQRSPMGRKQGGTLDDLEEQARELYRRLREKPRDQRTEGDSQEMVRLLLQAIQSFEKKVRVIYTQLSKTVVCKQKALELLPKVEEVVSLMNEDEKTVVRLQEKRQKELWNLLKIACSKVRGPVSGSPDSMNASRLSQPGQLMSQPSTASNSLPEPAKKSEELVAEAHNLCTLLENAIQDTVREQDQSFTALDWSWLQTEEEEHSCLEQAS
For the molecule B1, the binding entry in test [2] is reported as “binds”.
